# The other results are listed elsewhere or left out.
# Assays:
# Assay in all cases: glycan array binding signal (z-score within array); higher = stronger binding
# Settings in all cases: glycan notation: IUPAC condensed, linker removed
# [1] = target: Gal3S(b1-3)[Fuc(a1-4)]GlcNAc
# Summary of the method: (§1)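 Arrays were curated from the Consortium for Functional Glycomics database, 3228 in total, and kept only where the protein sequence was available. Binding is expressed as a within-array Z-score. This score was averaged across arrays of the same protein sequence at different concentrations or buffers and across linkers, and negative values can be read as non-binding.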
# Gal3S(b1-4)Glc = target: Gal3S(b1-4)Glc
# Summary of the method: as §1
# Gal3S(b1-4)Glc6S = target: Gal3S(b1-4)Glc6S
# Summary of the method: as §1
# Gal3S(b1-4)GlcNAc = target: Gal3S(b1-4)GlcNAc
# Summary of the method: as §1
# [2] = target: Gal3S(b1-4)[Fuc(a1-3)]Glc6S
# Summary of the method: as §1
# [3] = target: Gal3S(b1-4)[Fuc(a1-3)]GlcNAc
# Summary of the method: as §1
# [4] = target: Gal3S(b1-4)[Fuc(a1-3)]GlcNAc6S
# Summary of the method: as §1
# Gal3S4S(b1-4)GlcNAc = target: Gal3S4S(b1-4)GlcNAc
# Summary of the method: as §1
# Gal3S6S(b1-4)GlcNAc = target: Gal3S6S(b1-4)GlcNAc
# Summary of the method: as §1
# Gal3S6S(b1-4)GlcNAc6S = target: Gal3S6S(b1-4)GlcNAc6S
# Summary of the method: as §1
# Gal4S(b1-4)GlcNAc = target: Gal4S(b1-4)GlcNAc
# Summary of the method: as §1
# Gal4S6S(b1-4)GlcNAc = target: Gal4S6S(b1-4)GlcNAc
# Summary of the method: as §1
# Gal6P(b1-4)GlcNAc = target: Gal6P(b1-4)GlcNAc
# Summary of the method: as §1
# Gal6S(b1-3)GlcNAc = target: Gal6S(b1-3)GlcNAc
# Summary of the method: as §1
# Gal6S(b1-3)GlcNAc6S = target: Gal6S(b1-3)GlcNAc6S
# Summary of the method: as §1
# Gal6S(b1-4)Glc = target: Gal6S(b1-4)Glc
# Summary of the method: as §1
# Gal6S(b1-4)Glc6S = target: Gal6S(b1-4)Glc6S
# Summary of the method: as §1
# Gal6S(b1-4)GlcNAc = target: Gal6S(b1-4)GlcNAc
# Summary of the method: as §1
# Gal6S(b1-4)GlcNAc6S = target: Gal6S(b1-4)GlcNAc6S
# Summary of the method: as §1
# GalNAc(a1-3)Gal = target: GalNAc(a1-3)Gal
# Summary of the method: as §1
# GalNAc(a1-3)GalNAc = target: GalNAc(a1-3)GalNAc
# Summary of the method: as §1
# [5] = target: GalNAc(a1-3)GalNAc(b1-3)Gal(a1-4)Gal(b1-4)Glc
# Summary of the method: as §1
# [6] = target: GalNAc(a1-3)GalNAc(b1-3)Gal(a1-4)Gal(b1-4)GlcNAc
# Summary of the method: as §1
# GalNAc(b1-3)Gal = target: GalNAc(b1-3)Gal
# Summary of the method: as §1
# [7] = target: GalNAc(b1-3)Gal(a1-4)Gal(b1-4)GlcNAc
# Summary of the method: as §1
# [8] = target: GalNAc(b1-3)Gal(a1-4)Gal(b1-4)GlcNAc(b1-3)Gal(b1-4)Glc
# Summary of the method: as §1
# [9] = target: GalNAc(b1-3)Gal(a1-6)Gal(b1-4)Glc
# Summary of the method: as §1
# GalNAc(b1-3)GalNAc = target: GalNAc(b1-3)GalNAc
# Summary of the method: as §1
# GalNAc(b1-3)GlcNAc = target: GalNAc(b1-3)GlcNAc
# Summary of the method: as §1
# GalNAc(b1-4)Gal(b1-4)Glc = target: GalNAc(b1-4)Gal(b1-4)Glc
# Summary of the method: as §1
# GalNAc(b1-4)GlcNAc = target: GalNAc(b1-4)GlcNAc
# Summary of the method: as §1
# [10] = target: GalNAc(b1-4)GlcNAc(b1-2)Man
# Summary of the method: as §1
# [11] = target: GalNAc(b1-4)GlcNAc(b1-2)Man(a1-3)[GalNAc(b1-4)GlcNAc(b1-2)Man(a1-6)]Man(b1-4)GlcNAc(b1-4)GlcNAc
# Summary of the method: as §1
# [12] = target: GalNAc(b1-4)GlcNAc(b1-3)GalNAc(b1-4)GlcNAc
# Summary of the method: as §1
# GalNAc(b1-4)GlcNAc6S = target: GalNAc(b1-4)GlcNAc6S
# Summary of the method: as §1
# GalNAc(b1-6)GalNAc = target: GalNAc(b1-6)GalNAc
# Summary of the method: as §1
# GalNAc3S(b1-4)GlcNAc = target: GalNAc3S(b1-4)GlcNAc
# Summary of the method: as §1
# GalNAc3S(b1-4)GlcNAc3S = target: GalNAc3S(b1-4)GlcNAc3S
# Summary of the method: as §1
# [13] = target: GalNAc3S(b1-4)[Fuc(a1-3)]GlcNAc
# Summary of the method: as §1
# GalNAc4S6S(b1-4)GlcNAc = target: GalNAc4S6S(b1-4)GlcNAc
# Summary of the method: as §1
# GalNAc6S(b1-4)GlcNAc = target: GalNAc6S(b1-4)GlcNAc
# Summary of the method: as §1
# Glc(a1-4)Glc = target: Glc(a1-4)Glc
# Summary of the method: as §1
# [14] = target: Glc(a1-4)Glc(a1-4)Glc(a1-4)Glc
# Summary of the method: as §1
# Glc(a1-6)Glc(a1-6)Glc = target: Glc(a1-6)Glc(a1-6)Glc
# Summary of the method: as §1
# [15] = target: Glc(a1-6)Glc(a1-6)Glc(a1-6)Glc
# Summary of the method: as §1
binder,measurement,setting,value
"XTP3-B-MRH2 (Homo sapiens), Q96DZ1 (protein) EFLSGSYCFRGGVGWWKYEFCYGKHVHQYHEDKDSGKTSVVVGTWNQEEHIEWAKKNTARAYHLQDDGTQTVRMVSHFYGNGDICDITDKPRQVTVKLKCKESDSPHAVTVYMLEPHSCQYILGVESPVICKILDTA",glycan array binding signal (z-score),[1],0.892
same,glycan array binding signal (z-score),Gal3S(b1-4)Glc,0.107
same,glycan array binding signal (z-score),Gal3S(b1-4)Glc6S,0.874
same,glycan array binding signal (z-score),Gal3S(b1-4)GlcNAc,0.319
same,glycan array binding signal (z-score),[2],2.08
same,glycan array binding signal (z-score),[3],-0.289
same,glycan array binding signal (z-score),[4],0.284
same,glycan array binding signal (z-score),Gal3S4S(b1-4)GlcNAc,-0.385
same,glycan array binding signal (z-score),Gal3S6S(b1-4)GlcNAc,1.19
same,glycan array binding signal (z-score),Gal3S6S(b1-4)GlcNAc6S,0.709
same,glycan array binding signal (z-score),Gal4S(b1-4)GlcNAc,-0.334
same,glycan array binding signal (z-score),Gal4S6S(b1-4)GlcNAc,-0.162
same,glycan array binding signal (z-score),Gal6P(b1-4)GlcNAc,1.11
same,glycan array binding signal (z-score),Gal6S(b1-3)GlcNAc,1.62
same,glycan array binding signal (z-score),Gal6S(b1-3)GlcNAc6S,-1.14
same,glycan array binding signal (z-score),Gal6S(b1-4)Glc,0.215
same,glycan array binding signal (z-score),Gal6S(b1-4)Glc6S,0.292
same,glycan array binding signal (z-score),Gal6S(b1-4)GlcNAc,-1.65
same,glycan array binding signal (z-score),Gal6S(b1-4)GlcNAc6S,-0.36
same,glycan array binding signal (z-score),GalNAc(a1-3)Gal,-0.916
same,glycan array binding signal (z-score),GalNAc(a1-3)GalNAc,5.08
same,glycan array binding signal (z-score),[5],-1.04
same,glycan array binding signal (z-score),[6],0.574
same,glycan array binding signal (z-score),GalNAc(b1-3)Gal,0.566
same,glycan array binding signal (z-score),[7],1.17
same,glycan array binding signal (z-score),[8],-0.403
same,glycan array binding signal (z-score),[9],0.756
same,glycan array binding signal (z-score),GalNAc(b1-3)GalNAc,-1.03
same,glycan array binding signal (z-score),GalNAc(b1-3)GlcNAc,2.05
same,glycan array binding signal (z-score),GalNAc(b1-4)Gal(b1-4)Glc,-0.842
same,glycan array binding signal (z-score),GalNAc(b1-4)GlcNAc,2.09
same,glycan array binding signal (z-score),[10],-0.092
same,glycan array binding signal (z-score),[11],-0.025
same,glycan array binding signal (z-score),[12],0.458
same,glycan array binding signal (z-score),GalNAc(b1-4)GlcNAc6S,-0.644
same,glycan array binding signal (z-score),GalNAc(b1-6)GalNAc,-1.29
same,glycan array binding signal (z-score),GalNAc3S(b1-4)GlcNAc,-0.191
same,glycan array binding signal (z-score),GalNAc3S(b1-4)GlcNAc3S,-0.591
same,glycan array binding signal (z-score),[13],0.236
same,glycan array binding signal (z-score),GalNAc4S6S(b1-4)GlcNAc,-0.621
same,glycan array binding signal (z-score),GalNAc6S(b1-4)GlcNAc,0.681
same,glycan array binding signal (z-score),Glc(a1-4)Glc,0.45
same,glycan array binding signal (z-score),[14],0.461
same,glycan array binding signal (z-score),Glc(a1-6)Glc(a1-6)Glc,0.709
same,glycan array binding signal (z-score),[15],0.032

# Shown with bars between the fields: entries from further up.
binder | measurement | setting | value
XTP3-B-MRH2 (Homo sapiens), Q96DZ1 (protein) EFLSGSYCFRGGVGWWKYEFCYGKHVHQYHEDKDSGKTSVVVGTWNQEEHIEWAKKNTARAYHLQDDGTQTVRMVSHFYGNGDICDITDKPRQVTVKLKCKESDSPHAVTVYMLEPHSCQYILGVESPVICKILDTA | glycan array binding signal (z-score) | Gal3S(b1-4)Glc | 0.107
same | glycan array binding signal (z-score) | [9] | 0.756

# Source: the supplement of paper PMC8728848
